One substance from paper PMC2917412 can be followed below.

Amino acid sequences for entries named in this document (tags omitted). A change or cut given only in a name is not applied to a line headed by its entry.
UniProt Q8C6B2: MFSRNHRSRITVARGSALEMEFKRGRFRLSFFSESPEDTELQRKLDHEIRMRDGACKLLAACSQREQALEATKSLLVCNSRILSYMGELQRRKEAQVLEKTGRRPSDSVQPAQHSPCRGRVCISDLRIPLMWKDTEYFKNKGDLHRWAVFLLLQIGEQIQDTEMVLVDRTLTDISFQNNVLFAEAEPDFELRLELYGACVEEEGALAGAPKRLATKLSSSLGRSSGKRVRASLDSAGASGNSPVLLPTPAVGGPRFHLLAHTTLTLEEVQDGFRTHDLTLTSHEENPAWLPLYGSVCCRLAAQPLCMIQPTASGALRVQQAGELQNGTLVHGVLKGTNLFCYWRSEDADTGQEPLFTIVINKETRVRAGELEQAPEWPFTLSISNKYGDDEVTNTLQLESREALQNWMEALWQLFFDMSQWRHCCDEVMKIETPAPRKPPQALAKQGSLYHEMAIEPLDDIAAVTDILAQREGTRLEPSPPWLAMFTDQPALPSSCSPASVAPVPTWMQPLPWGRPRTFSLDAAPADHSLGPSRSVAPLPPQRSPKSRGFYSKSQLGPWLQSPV
UniProt Q9QUI0: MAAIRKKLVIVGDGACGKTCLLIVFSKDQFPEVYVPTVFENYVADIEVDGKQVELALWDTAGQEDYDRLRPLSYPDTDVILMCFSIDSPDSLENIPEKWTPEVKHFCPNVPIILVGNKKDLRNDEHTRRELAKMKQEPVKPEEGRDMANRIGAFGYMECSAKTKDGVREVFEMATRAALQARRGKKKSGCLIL

The experiment deals with GST-Rhotekin-RBD (GTP-dependent binding domain of Rhotekin) (UniProt Q8C6B2). As to the kind of experiment: pull-down; lysates of transiently transfected NIH3T3 cells (pcDNA3, tP2YR, Tiam1-C1199 or Ect2-DH/PH/C; grown 24 h in DMEM with 0.5% fetal calf serum) incubated with GST-PAK-RBD or GST-Rhotekin-RBD; only the target purified.

No constants are given. Whether binding was seen depends on the method and setting. Binding seen in cells or lysates may run through a third protein. Binding can be weak; no strength is given.

Consider “RhoA (activated, GTP-bound) (from UniProt Q9QUI0 1-193)”, for which the binding entry is “binds”.
